According to PubChem BioAssay AID540276 (National Center for Advancing Translational Sciences (NCATS), 2011):
Out of some 300,000 compounds screened, about 5,400 (1.8%) were called active. Inconclusive results, whose numbers are uncertain, are shown with a selection of clear calls. Calls follow the shape of the full dose curve; tested in HEK293 cells. Potencies beside an inconclusive call are fits to weak or partial responses and may not hold up.

Assay: qHTS for inhibitors of binding or entry into cells for Marburg Virus
Conditions: Marburg virus pseudotyped entry inhibition, cell reporter; series mostly up to 37.8 µM
Potency is read from the fitted curve at half-maximal effect.

Row | Compound | Potency
1 | CCc1cccc(C)c1NC(=O)C1CCCN(S(=O)(=O)c2cccc3nsnc23)C1 (stereo not drawn) | inconclusive: 35.5 µM [activator, single point]
2 | CCn1c(SCC(=O)Nc2ccc(C)cc2)nc(O)cc1=O | inactive
3 | Nc1nnnn1/N=C/c1ccccc1OCc1ccc(Cl)cc1Cl | inconclusive: 2.31 µM [inhibitor, partial curve, poor fit]
4 | N#Cc1c(-c2ccccc2)ccnc1Oc1ccccc1 | inconclusive: 11.2 µM [activator, partial curve, poor fit]
5 | COC(=O)c1ccc(NC(=O)C2CCCO2)cc1 (stereo not drawn) | inconclusive: 14.6 µM [activator, partial curve, poor fit]
6 | Clc1ccc(-c2ccc(SCc3ccccn3)nn2)cc1 | inactive
7 | COc1cc(NC(=O)c2cccc(Cl)c2)c(OC)cc1NC(=O)CN1CCCCC1 | inconclusive: 35.5 µM [inhibitor, single point]
8 | COc1cccc(NC(=S)NNC(=O)c2ccccc2OC(F)F)c1 | inconclusive: 0.291 µM [activator, full curve, poor fit]
9 | CN(C)c1ccc(CNc2nc(-c3ccco3)nn2S(=O)(=O)c2ccc(Cl)cc2)cc1 | inconclusive: 0.355 µM [activator, full curve, poor fit]
10 | COc1ccc(C(=O)NNC2=Nc3cccc4cccc2c34)cc1 | inactive
11 | CCCNC(=O)OC[C@@H]1O[C@H](CCO/N=C\C[C@H]2C=C[C@H](OC(C)=O)[C@@H](COC(C)=O)O2)C=C[C@@H]1Oc1ccc(OC)cc1 | inactive
12 | COc1ccc(NC(=O)c2cc3ccccc3cc2O)cc1 | active: 1.12 µM
13 | COc1ccc(NC(=O)/C(C#N)=C/c2c(C)nn(-c3ccc(F)cc3)c2Cl)cc1OC | inconclusive: 25.9 µM [inhibitor, single point]
14 | COC(=O)c1cc(NC(=O)c2c(Cl)cnn2C)cc(C(=O)OC)c1 | inactive
15 | COc1ccc(CC(=O)Nc2ccc(F)c(S(=O)(=O)N3CCOCC3)c2)cc1 | inactive
16 | COc1ccc2nc(NC(=O)c3ccc(F)cc3)sc2c1 | inconclusive: 15.8 µM [inhibitor, single point]
17 | COc1ccccc1CNc1nc(-c2ccco2)nn1C(=O)c1ccccc1[N+](=O)[O-] | inactive
18 | COCCCNC(=O)Cn1c(=O)n(-c2cccc(C)c2)c(=O)c2c3c(sc21)CN(C(C)=O)CC3 | inactive
19 | CCOC(=O)Cc1csc(NC(=O)Cc2ccccc2)n1 | inactive
20 | O=C1OC(c2ccc(O)cc2)(c2ccc(O)cc2)c2ccccc21 | inconclusive: 29.1 µM [activator, partial curve, poor fit]
21 | COc1ccc(CNC(=O)c2c(N)n(CCCN3CCOCC3)c3nc4ccccc4nc23)cc1 | active: 16.4 µM
22 | CC(=O)NC(=O)NC1OC(=O)C(Cl)=C1Cl (stereo not drawn) | inconclusive: 2.91 µM [inhibitor, partial curve, poor fit]
23 | O=C(CN1C(=O)NC2(CCCC2)C1=O)NNC(=O)c1ccc(F)cc1 | inactive
24 | O=C(O)c1cc2ccc3ccccc3c2[nH]1 | inconclusive: 23.1 µM [activator, partial curve, poor fit]

Part of the list above in order of formula weight, rising:
Row | Compound | Potency
24 | O=C(O)c1cc2ccc3ccccc3c2[nH]1 | inconclusive: 23.1 µM [activator, partial curve, poor fit]
12 | COc1ccc(NC(=O)c2cc3ccccc3cc2O)cc1 | active: 1.12 µM
10 | COc1ccc(C(=O)NNC2=Nc3cccc4cccc2c34)cc1 | inactive

More records follow.

Row | Compound | Potency
25 | COc1cc(C(=O)O/N=C(\N)c2ccc([N+](=O)[O-])cc2)cc(OC)c1OC | inactive
26 | Cc1cc(OCCn2c(C3CC(=O)N(Cc4ccc(F)cc4)C3)nc3ccccc32)ccc1Cl (stereo not drawn) | inactive
27 | COc1ccc(N2CCN(CC(=O)N3c4ccccc4CC3C)CC2)cc1 (stereo not drawn) | inactive
28 | COc1cc2[nH]c(=O)n(CCCC(=O)NCc3ccccc3Cl)c(=O)c2cc1OC | inactive
29 | CCCNC(=S)N1CCC(NC(=O)C23CC4CC(CC(C4)C2)C3)CC1 | inconclusive: 1.12 µM [activator, partial curve, poor fit]
30 | O=C(COc1cc(F)ccc1[N+](=O)[O-])NCCN1C(=O)CSC1=O | inconclusive: 3.16 µM [activator, partial curve]
31 | CCC(=Nc1ccccc1OC)C1=C(O)CC(c2ccccc2)CC1=O (stereo not drawn) | inactive
32 | O=C(CSc1nc2c(c(=O)[nH]1)CCCC2)Nc1cccc(O)c1 | inactive
33 | O=C(O)/C(=C/c1ccco1)NC(=O)c1ccc(Br)o1 | inconclusive: 35.5 µM [inhibitor, single point]
34 | NS(=O)(=O)c1cc(C(=O)OCC(=O)c2ccccc2)c(Cl)cc1Cl | inactive
35 | O=C(NCc1ccco1)c1ccc(Cl)c(S(=O)(=O)N2CCc3ccccc32)c1 | inconclusive: 11.2 µM [inhibitor, partial curve, poor fit]
36 | Cc1ccc(N(C(=O)Nc2ccccc2)C2=NCCC2)cc1 | inactive
37 | COC(=O)N[C@H](C(C(=O)OC)=C(C)NCc1ccccc1)c1cccs1 | inconclusive: 0.237 µM [activator, full curve, poor fit]
38 | Cc1nn(-c2nc3ccccc3[nH]2)c(N)c1-c1ccccc1 | inconclusive: 35.5 µM [inhibitor, single point]
39 | Cc1cc2n(n1)SC(Nc1ccc(F)c(Cl)c1)N2 (stereo not drawn) | inactive
40 | CC(NCCN(C)C)C1CCC2C3CCc4cc(O)ccc4C3CCC12C (stereo not drawn) | inconclusive: 12.6 µM [inhibitor, single point]
41 | COc1ccccc1CNC(=O)Cn1c(=O)oc2ccccc21 | inconclusive: 3.16 µM [activator, single point]
42 | CC1CCN(C(=O)COc2cccc3c2CCN(C)C3=O)CC1 | inactive
43 | O=C(Nc1cccc(S(=O)(=O)N2CCCC2)c1)c1cccc(OC(F)F)c1 | inconclusive: 35.5 µM [inhibitor, single point]
44 | CC(C)C(=O)O/N=C1\CCS(=O)(=O)c2sccc21 | inconclusive: 14.1 µM [activator, single point]
45 | CCOC(=O)c1cnc(-n2nc(C)cc2C)nc1NCCc1ccccc1 | inconclusive: 35.5 µM [inhibitor, single point]
46 | CC(C)(C)NC(=S)N/N=C\c1ccc(-c2ccc([N+](=O)[O-])cc2)o1 | inactive
47 | CS(=O)(=O)c1cnc2c(-c3ccc(F)cc3)cnn2c1N | inactive
48 | O=C(Cc1cc(=O)oc2cc(O)ccc12)NN=Cc1ccc(N(CCCl)CCCl)cc1 | active: 4.47 µM
